From patent US6403765B1, “Truncated Apaf-1 and methods of use thereof” (Thomas Jefferson University, priority 1998, dated 2002)
These are yes or no findings as the source states them, for the method shown. In cells and extracts the contact can be indirect. Some entries that bind do so weakly or less than the wild type.

Protein sequences, listed by entry. Tags and fused reporters are not part of them. Lines headed by an entry give the natural chain unless they say otherwise; changes in a name come on top.
UniProt Q07817: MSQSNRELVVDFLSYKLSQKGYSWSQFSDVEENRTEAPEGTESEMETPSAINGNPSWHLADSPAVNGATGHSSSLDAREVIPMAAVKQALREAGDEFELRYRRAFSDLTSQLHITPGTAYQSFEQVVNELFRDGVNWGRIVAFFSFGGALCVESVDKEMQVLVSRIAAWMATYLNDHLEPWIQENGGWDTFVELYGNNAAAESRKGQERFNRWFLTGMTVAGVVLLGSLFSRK
UniProt O14727: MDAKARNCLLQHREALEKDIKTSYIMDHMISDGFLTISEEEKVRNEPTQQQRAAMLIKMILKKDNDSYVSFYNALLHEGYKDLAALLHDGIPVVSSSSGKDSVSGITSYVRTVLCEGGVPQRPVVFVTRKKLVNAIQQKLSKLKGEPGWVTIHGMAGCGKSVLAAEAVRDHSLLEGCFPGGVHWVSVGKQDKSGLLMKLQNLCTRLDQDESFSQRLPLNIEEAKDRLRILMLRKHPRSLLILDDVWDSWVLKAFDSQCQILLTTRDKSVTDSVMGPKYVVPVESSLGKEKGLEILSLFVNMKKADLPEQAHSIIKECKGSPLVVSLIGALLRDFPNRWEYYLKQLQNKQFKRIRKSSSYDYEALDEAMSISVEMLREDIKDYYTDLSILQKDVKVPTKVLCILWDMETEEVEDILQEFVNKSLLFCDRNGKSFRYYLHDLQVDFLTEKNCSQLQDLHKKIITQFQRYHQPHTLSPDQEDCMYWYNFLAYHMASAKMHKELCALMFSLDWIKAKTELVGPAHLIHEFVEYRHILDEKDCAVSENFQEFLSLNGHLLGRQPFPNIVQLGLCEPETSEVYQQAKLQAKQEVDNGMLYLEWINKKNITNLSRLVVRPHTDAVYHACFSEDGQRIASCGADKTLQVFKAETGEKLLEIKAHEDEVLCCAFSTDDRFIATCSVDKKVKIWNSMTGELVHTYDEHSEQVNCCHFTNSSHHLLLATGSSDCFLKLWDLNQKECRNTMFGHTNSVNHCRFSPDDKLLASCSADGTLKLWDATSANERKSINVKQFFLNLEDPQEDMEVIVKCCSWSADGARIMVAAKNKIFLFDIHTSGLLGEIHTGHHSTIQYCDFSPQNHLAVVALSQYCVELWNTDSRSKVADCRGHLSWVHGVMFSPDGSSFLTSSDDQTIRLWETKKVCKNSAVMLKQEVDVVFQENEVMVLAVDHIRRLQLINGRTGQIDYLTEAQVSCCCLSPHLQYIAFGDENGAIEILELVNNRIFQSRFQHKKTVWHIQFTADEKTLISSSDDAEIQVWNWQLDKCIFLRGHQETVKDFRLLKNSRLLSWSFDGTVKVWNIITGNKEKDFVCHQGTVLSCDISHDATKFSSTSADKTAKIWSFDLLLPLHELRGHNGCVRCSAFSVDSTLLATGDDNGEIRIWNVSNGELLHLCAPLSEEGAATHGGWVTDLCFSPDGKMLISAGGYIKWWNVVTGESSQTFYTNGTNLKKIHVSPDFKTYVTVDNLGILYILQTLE

Experiments:
Assay in all cases: co-immunoprecipitation from co-transfected 293 cells: anti-Flag IP, anti-T7 immunoblot
T7-tagged Bcl-xL = molecular target: T1, T7-tagged Bcl-xL (UniProt Q07817 1-233)
T1 construct: Expressed in co-transfected 293 cells
Protocol: The immunoprecipitates were analyzed by Western blotting with an anti-T7 antibody.
After 36 hours, extracts were prepared and immunoprecipitated with a monoclonal antibody to the Flag epitope. The immunoprecipitates (upper panel) were analyzed by SDS-PAGE and immunoblotted with a horseradish peroxides-conjugated T7 antibody.
In vivo interaction experiments between Apaf-1 variants and Bcl-x_L were performed. […] After 36 hours, extracts were prepared and immunoprecipitated with a monoclonal antibody to the Flag epitope. The immunoprecipitates (FIG. 16, upper panel) were analyzed by SDS-PAGE and immunoblotted with a horseradish peroxidase-conjugated T7 antibody.

[1] = molecular target: Flag-tagged Apaf-530 (human) (UniProt O14727)
[2] = molecular target: Flag-tagged Apaf-1 (full length) (human) (UniProt O14727)
[3] = molecular target: Flag-tagged Apaf-530ΔCARD (human) (UniProt O14727)

| binding (T7-tagged Bcl-xL) | binding [1] | binding [2] | binding [3] | Substance |
| --- | --- | --- | --- | --- |
| binds | – | – | – | Flag-tagged Apaf-1 (full length) (from UniProt O14727 1-1248) |
| binds | – | – | – | Flag-tagged Apaf-530 (from UniProt O14727 1-541) |
| binds | – | – | – | Flag-tagged Apaf-530ΔCARD (from UniProt O14727 110-541) |
| – | binds | binds | binds | T7-tagged Apaf-530 (from UniProt O14727 1-541) |
